# From PubChem BioAssay AID2685 (National Center for Advancing Translational Sciences (NCATS), 2010)
# The list shows a part of the results. Further columns of the screen follow, without active or inactive calls. The list favours compounds with an active or inconclusive main result. The note in brackets gives the kind of curve behind each potency; many fits are weak.
# Experiment: qHTS Assay for Lipid Storage Modulators in Drosophila S3 Cells;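 on cell number change: cells counted by Cell Tracker Red CMTPX staining in the red channel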
# Conditions: BODIPY lipid droplet fluorescence, 18-24 h; for cell number change: measured here: cell count max response, cells fed with added oleic acid
# How it was run: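 Laser-scanning cytometry quantifies lipid droplet accumulation (500–530 nm total intensity; droplet/cell object ratio) in oleic acid-fed (400 uM added) Drosophila S3 cells treated with a concentration series. 20 uM Triacsin C defined 100% inhibition.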
# [1] = measured here: lipid fluorescence (Fed channel) AC50, cells fed with added oleic acid
# [2] = measured here: cell number channel AC50, cells fed with added oleic acid
compound,measurement,setting,value
CC(=O)Nc1ccc(/C(C)=N/Nc2nc(Nc3cccc4ccccc34)nc(N3CCOCC3)n2)cc1,cell number change,,-12.4%
same,AC50,[1],"29.1 µM [rising, single point]"
COC(=O)C(c1ccccc1)N(Cc1cccc(CN(C(C(=O)OC)c2ccccc2)S(C)(=O)=O)c1)S(C)(=O)=O (stereo unspecified),cell number change,,5.83%
same,AC50,[1],"29.1 µM [rising, single point]"
O=C(Nc1ccc2oc(-c3ccccc3)nc2c1)c1cc(-n2cnnc2)ccc1Cl,cell number change,,23.6%
same,AC50,[1],"0.58 µM [rising, full curve, poor fit]"
CCOc1ccccc1/C=C(\C#N)C1=CCCC1,cell number change,,-38.1%
same,AC50,[2],"29.1 µM [falling, single point]"
O=C(CSc1nnc(-c2cccs2)n1-c1ccccc1)NCc1ccc2c(c1)OCO2,cell number change,,2.37%
same,AC50,[1],"0.82 µM [rising, full curve, poor fit]"
CC(=O)c1sc2nc(-c3ccc(C)cc3)c3c(c2c1N)CCCC3,cell number change,,2.42%
same,AC50,[1],"1.64 µM [rising, partial curve]"
CCCCNC(=O)Nc1nc2ccc(CC)cc2s1,cell number change,,26.1%
Cc1ccccc1Cn1ccc(NC(=O)c2cnn3cccnc23)n1,cell number change,,12.6%
O=C(O)c1c2c(nc3ccccc13)-c1ccccc1CC2,cell number change,,-21.9%
same,AC50,[1],"5.8 µM [falling, full curve, poor fit]"
COc1ccc(-c2onc(C)c2-c2ccc(C(=O)OC(C)C)o2)c(O)c1,cell number change,,-50.1%
same,AC50,[2],"16.4 µM [falling, single point]"
same,AC50,[1],"11.6 µM [falling, partial curve]"
COc1ccccc1N(CC(=O)NC1CCCC1)S(=O)(=O)c1ccc(C)cc1,cell number change,,-9.66%
Clc1ccc(NCc2nncn2-c2ccccc2)cc1,cell number change,,22.3%
same,AC50,[1],"23.1 µM [rising, single point]"
CC(=O)c1c[nH]c(C(=O)NCC2CCCO2)c1 (stereo unspecified),cell number change,,-84.8%
same,AC50,[2],"20.6 µM [falling, partial curve]"
same,AC50,[1],"23.1 µM [falling, partial curve]"
O=C(CN1C(=O)C2CCCCN2C(=O)c2ccccc21)Nc1ccc(F)cc1 (stereo unspecified),cell number change,,-10.6%
COc1cccc(NC(=O)NC2CC(=O)N(c3ccc4c(c3)OCCO4)C2)c1 (stereo unspecified),cell number change,,8.84%
O=C(O)c1cccnc1Cl,cell number change,,4.69%
Nn1c(SCc2ccc(F)cc2)nnc1-c1ccccn1,cell number change,,14.6%
same,AC50,[1],"29.1 µM [rising, single point]"
CC(Oc1ccccc1)C(=O)Nc1ccc(F)c(S(=O)(=O)N2CCOCC2)c1 (stereo unspecified),cell number change,,-25.9%
same,AC50,[1],"7.31 µM [falling, partial curve, poor fit]"
CCCCNC(=O)c1ccccc1SCc1c(C)noc1C,cell number change,,8.84%
same,AC50,[1],"7.94 µM [rising, partial curve, poor fit]"
CC(=O)Nc1ccc(C2NC(=O)CCC2[N+](=O)[O-])cc1 (stereo unspecified),cell number change,,2.13%
CC(C)NC(=O)N(O)C1N(Cc2ccc3c(c2)OCO3)C(=S)SC1(C)C (stereo unspecified),cell number change,,-51.9%
same,AC50,[2],"29.1 µM [falling, single point]"
same,AC50,[1],"23.1 µM [falling, single point]"
CC(=O)Nc1ccc(NC(=O)CN2C(=O)COc3ccc(S(=O)(=O)N4CCCCC4)cc32)cc1,cell number change,,-18%
CCOC(=O)C1=C(C)NC(C)=C(C(=O)OCC)C1C1=COCCO1,AC50,[2],"4.61 µM [rising, single point]"
same,AC50,[1],"2.31 µM [rising, partial curve, poor fit]"
CC1CCC2(CC1)NC(=O)N(NC(=O)c1cccc(N(C)C)c1)C2=O (stereo unspecified),cell number change,,-17.8%
same,AC50,[1],"0.731 µM [rising, single point]"
Nc1nc(CSC(=S)N2CCN(c3ccccc3)CC2)nc(Nc2ccccc2)n1,cell number change,,4.78%
same,AC50,[1],"1.64 µM [rising, partial curve]"
COc1ccc(-c2n[nH]c(=S)n2-c2ccccc2C)cc1OC,cell number change,,-11%
Cn1c(=O)[nH]c(=O)c2[nH]c(CN3CCN(C(=O)c4ccco4)CC3)nc21,cell number change,,-87.4%
same,AC50,[2],"16.4 µM [falling, partial curve, poor fit]"
C=CCN(C(=O)CCc1ccccc1OC)c1nc(-c2ccc(S(C)(=O)=O)cc2)cs1,cell number change,,714%
same,AC50,[2],"14.6 µM [rising, partial curve]"
same,AC50,[1],"11.6 µM [falling, partial curve]"
O=C(/C=C/Nc1ccccc1)c1ccccc1,cell number change,,154%
same,AC50,[2],"20.6 µM [rising, partial curve]"
same,AC50,[1],"1.64 µM [rising, partial curve]"
COc1ccc(-c2c[nH]c(=O)[nH]c2=O)cc1OC,AC50,[1],"0.00461 µM [rising, full curve, poor fit]"
Cc1cc(OC(=O)c2cc(Br)ccc2Cl)c([N+](=O)[O-])c(=O)[nH]1,cell number change,,27.2%
CCCc1cc(=O)[nH]c(SCC(=O)N2CC3(C)CC2CC(C)(C)C3)n1 (stereo unspecified),cell number change,,-10.4%
same,AC50,[2],"0.0058 µM [falling, full curve, poor fit]"
same,AC50,[1],"0.00517 µM [falling, full curve, poor fit]"
COc1cccc(NC(=O)N2CCN(c3cccc(C)c3C)CC2)c1,cell number change,,113%
same,AC50,[2],"29.1 µM [rising, single point]"
same,AC50,[1],"29.1 µM [rising, single point]"
Cc1cc(CN(C)C(=O)c2ccc3nc(Cc4ccccc4F)oc3c2)n[nH]1,cell number change,,29%
same,AC50,[1],"4.11 µM [rising, partial curve]"
CCCn1cnc2scc(-c3ccc(C)c(C)c3)c2c1=O,cell number change,,-21.7%
same,AC50,[1],"6.51 µM [rising, partial curve]"
CCc1n(CC(O)COCc2ccccc2)c2ccccc2[n+]1C (stereo unspecified),cell number change,,-0.906%
same,AC50,[2],"0.58 µM [falling, single point]"
Cc1cc(C(=O)NNC(=S)NCC(C)C)cs1,cell number change,,33.9%
same,AC50,[2],"1.46 µM [rising, full curve]"
Cc1cccc(NC(=O)c2ccccc2C(=O)O)c1,cell number change,,47.2%
same,AC50,[2],"13 µM [rising, partial curve]"
COc1ccc(-c2n[nH]c(C)c2-c2cnn(-c3ccccc3)c2)c(O)c1C,cell number change,,-47.3%
same,AC50,[2],"32.6 µM [falling, single point]"
same,AC50,[1],"29.1 µM [falling, single point]"
CSc1ccc(/C=N/Nc2nc(C)cc(=O)[nH]2)cc1,cell number change,,3.5%

# Three neighbouring entries out of the list so far, for reference:
compound,measurement,setting,value
CC(=O)c1sc2nc(-c3ccc(C)cc3)c3c(c2c1N)CCCC3,cell number change,,2.42%
same,AC50,[1],"1.64 µM [rising, partial curve]"
CCCCNC(=O)Nc1nc2ccc(CC)cc2s1,cell number change,,26.1%
